Reference: PubChem BioAssay AID248 (DTP/NCI, 2004)
The list shows only some results of the screen, not a fair sample: it gathers tests that were run many times, whatever their T/C, doses with no T/C, and many T/C values between a quarter and a half above the control. Further doses and runs are listed elsewhere. T/C is the treated group as % of the vehicle group. Some entries give survivors of the animals treated and no T/C: the source files T/C as zero there, which appears to mark a toxic dose or a test without result, not a measured value. Some survivor counts are full or nearly so, which does not show that the dose was tolerated: survival well below the control is almost never listed, so the zero probably covers shortened survival too. Survivors were counted at the toxicity check, usually on the fifth day, unless a day is given; later deaths do not show. Schedules are NCI's codes, read here as Q, the interval in days (D) or hours (H), X, the number of doses. Some schedule codes hold Z or #, which are not explained here. Where survival is the endpoint, this PubChem deposit counts one and a half times the control or more as active, and values a quarter to a half above the control carry no call in these data; other NCI protocols may use other cut-offs. Some T/C values carry the count of animals alive at the toxicity check (mostly the fifth day); where none is given, no animal had died by that day. Some entries hold several experiments; the results are listed from low to high. Additions like (4×) stand for listed records that agree.

System: L1210 leukemia ip in BDF1 mice, survival T/C
Test: NCI In Vivo Anticancer Drug Screen. Data for tumor model L1210 Leukemia (intraperitoneal) in B6D2F1 (BDF1) mice
Conditions: higher T/C = longer survival
[1] = T/C endpoint: mean survival time, dose: 400.0 mg/kg/injection, schedule: Q01DX001 (ip), vehicle: carboxymethylcellulose (CMC)
[2] = T/C endpoint: mean survival time, dose: 400.0 mg/kg/injection, schedule: Q04DX003 (ip), vehicle: saline
[3] = T/C endpoint: mean survival time, dose: 100.0 mg/kg/injection, schedule: Q01DX009 (ip), vehicle: Klucel (hydroxypropylcellulose) (HPC)
[4] = T/C endpoint: mean survival time, dose: 200.0 mg/kg/injection, schedule: Q01DX009 (ip), vehicle: Klucel (hydroxypropylcellulose) (HPC)
[5] = T/C endpoint: mean survival time, dose: 400.0 mg/kg/injection, schedule: Q01DX001 (ip), vehicle: saline with Tween-80
[6] = T/C endpoint: mean survival time, dose: 200.0 mg/kg/injection, schedule: Q04DX003 (ip), vehicle: saline
[7] = T/C endpoint: mean survival time, dose: 400.0 mg/kg/injection, schedule: Q04DX003 (ip), vehicle: Klucel (hydroxypropylcellulose) (HPC)

## CCN(CC)CCN(C#N)Cc1ccccc1
T/C endpoint: mean survival time, dose: 150.0 mg/kg/injection, schedule: Q01DX001 (ip), vehicle: carboxymethylcellulose (CMC)
  survivor count: 1 of 6
T/C endpoint: mean survival time, dose: 300.0 mg/kg/injection, schedule: Q01DX001 (ip), vehicle: carboxymethylcellulose (CMC)
  survivor count: 0 of 6

## CCCc1cc(=O)c2ccccc2n1COC(C)=O
[1]
  survivor count: 2 of 4

## COc1cc(N2CCOCC2)ccc1[N+](=O)[O-]
[2]
  survivor count: 3 of 6

## CCCCCCCCCCCCCCCC(=O)OCC1OC(n2ccc(N)nc2=O)C(O)C1O (stereo unspecified)
T/C endpoint: mean survival time, dose: 5.0 mg/kg/injection, schedule: Q01DX005 (ip), vehicle: other
  T/C: 132 and 145 % of control
T/C endpoint: mean survival time, dose: 6.25 mg/kg/injection, schedule: Q01DX001 (ip), vehicle: saline
  T/C: 141 % of control
T/C endpoint: mean survival time, dose: 10.0 mg/kg/injection, schedule: Q01DX009 (ip), vehicle: saline with Tween-80, evaluated on day 5
  T/C: 105 and 251 % of control
T/C endpoint: mean survival time, dose: 10.0 mg/kg/injection, schedule: Q01DX009 (ip), vehicle: saline with Tween-80, evaluated on day 45
  T/C: 105 % of control
T/C endpoint: mean survival time, dose: 10.0 mg/kg/injection, schedule: Q01DX009 (ip), vehicle: saline with Tween-80, evaluated on day 60
  T/C: 251 % of control
T/C endpoint: mean survival time, dose: 15.0 mg/kg/injection, schedule: Q01DX009 (ip), vehicle: saline with Tween-80, evaluated on day 5
  T/C: 127 and 372 % of control
T/C endpoint: mean survival time, dose: 15.0 mg/kg/injection, schedule: Q01DX009 (ip), vehicle: saline with Tween-80, evaluated on day 45
  T/C: 127 % of control
T/C endpoint: mean survival time, dose: 15.0 mg/kg/injection, schedule: Q01DX009 (ip), vehicle: saline with Tween-80, evaluated on day 60
  T/C: 372 % of control
T/C endpoint: mean survival time, dose: 20.0 mg/kg/injection, schedule: Q12HX008 (ip), vehicle: other, evaluated on day 60
  T/C: 283 and 402 % of control
T/C endpoint: mean survival time, dose: 20.0 mg/kg/injection, schedule: Q12HX008 (ip), vehicle: other, evaluated on day 90
  T/C: 292 and 651 % of control [9 of 10 alive]
T/C endpoint: mean survival time, dose: 25.0 mg/kg/injection, schedule: Q08DX008 (ip), vehicle: other
  T/C: 144 % of control
T/C endpoint: mean survival time, dose: 25.0 mg/kg/injection, schedule: Q12HX008 (ip), vehicle: other, evaluated on day 60
  T/C: 437 and 504 % of control
T/C endpoint: mean survival time, dose: 25.0 mg/kg/injection, schedule: Q12HX008 (ip), vehicle: other, evaluated on day 90
  T/C: 348 and 691 % of control
T/C endpoint: mean survival time, dose: 30.0 mg/kg/injection, schedule: Q01DX005 (ip), vehicle: other, evaluated on day 45
  T/C: 267, 289, 294 % of control
T/C endpoint: mean survival time, dose: 30.0 mg/kg/injection, schedule: Q01DX005 (ip), vehicle: other, evaluated on day 60
  T/C: 313 and 325 % of control
T/C endpoint: mean survival time, dose: 30.0 mg/kg/injection, schedule: Q12HX008 (ip), vehicle: other, evaluated on day 60
  T/C: 388 and 527 % of control
T/C endpoint: mean survival time, dose: 30.0 mg/kg/injection, schedule: Q12HX008 (ip), vehicle: other, evaluated on day 90
  T/C: 260 and 406 % of control
T/C endpoint: mean survival time, dose: 54.0 mg/kg/injection, schedule: Q01DX009 (oral), vehicle: saline with Tween-80
  T/C: 127 % of control
T/C endpoint: mean survival time, dose: 80.0 mg/kg/injection, schedule: Q01DX009 (oral), vehicle: saline with Tween-80
  T/C: 127 % of control
T/C endpoint: mean survival time, dose: 100.0 mg/kg/injection, schedule: Q01DX001 (ip), vehicle: saline with Tween-80, evaluated on day 5
  T/C: 224 and 357 % of control
T/C endpoint: mean survival time, dose: 100.0 mg/kg/injection, schedule: Q01DX001 (ip), vehicle: saline with Tween-80, evaluated on day 45
  T/C: 168, 220, 222, 224, 257, 260, 290 % of control
T/C endpoint: mean survival time, dose: 100.0 mg/kg/injection, schedule: Q01DX001 (ip), vehicle: saline with Tween-80, evaluated on day 60
  T/C: 290, 302, 357 % of control
T/C endpoint: mean survival time, dose: 150.0 mg/kg/injection, schedule: Q01DX001 (ip), vehicle: other, evaluated on day 45
  T/C: 293, 303, 306 % of control
T/C endpoint: mean survival time, dose: 150.0 mg/kg/injection, schedule: Q01DX001 (ip), vehicle: other, evaluated on day 60
  T/C: 289 and 570 % of control
T/C endpoint: mean survival time, dose: 150.0 mg/kg/injection, schedule: Q01DX001 (ip), vehicle: saline with Tween-80, evaluated on day 5
  T/C: 237 and 445 % of control
T/C endpoint: mean survival time, dose: 150.0 mg/kg/injection, schedule: Q01DX001 (ip), vehicle: saline with Tween-80, evaluated on day 45
  T/C: 237, 323 (2×), 325, 342, 363, 382 % of control
T/C endpoint: mean survival time, dose: 150.0 mg/kg/injection, schedule: Q01DX001 (ip), vehicle: saline with Tween-80, evaluated on day 60
  T/C: 341, 400, 445 % of control
T/C endpoint: mean survival time, dose: 200.0 mg/kg/injection, schedule: Q01DX001 (ip), vehicle: other, evaluated on day 45
  T/C: 272, 281, 307 % of control
T/C endpoint: mean survival time, dose: 200.0 mg/kg/injection, schedule: Q01DX001 (ip), vehicle: other, evaluated on day 60
  T/C: 294 and 450 % of control
T/C endpoint: mean survival time, dose: 200.0 mg/kg/injection, schedule: Q01DX001 (ip), vehicle: saline with Tween-80, evaluated on day 45
  T/C: 310, 359, 369 [9 of 10 alive], 452 % of control
T/C endpoint: mean survival time, dose: 200.0 mg/kg/injection, schedule: Q01DX001 (ip), vehicle: saline with Tween-80, evaluated on day 60
  T/C: 378 and 386 % of control
T/C endpoint: mean survival time, dose: 200.0 mg/kg/injection, schedule: Q01DX005 (ip), vehicle: saline
  survivor count: 6 of 6
T/C endpoint: mean survival time, dose: 800.0 mg/kg/injection, schedule: Q01DX001 (ip), vehicle: saline
  survivor count: 6 of 10
T/C endpoint: median survival time, dose: 600.0 mg/kg/injection, schedule: Q01DX001 (ip), vehicle: saline
  survivor count: 8 of 8

## CC(C)c1ccc([N+](=O)[O-])cc1
T/C endpoint: mean survival time, dose: 400.0 mg/kg/injection, schedule: Q01DX009 (ip), vehicle: saline with Tween-80
  survivor count: 3 of 6

## Nc1nc(=S)c2[nH]c(N=Nc3ccc(S(=O)(=O)Nc4cnc5ccccc5n4)cc3)nc2[nH]1
[3]
  survivor count: 6 of 6
[4]
  survivor count: 3 of 6
T/C endpoint: mean survival time, dose: 400.0 mg/kg/injection, schedule: Q01DX009 (ip), vehicle: Klucel (hydroxypropylcellulose) (HPC)
  survivor count: 1 of 6

## CCOC(=O)CSC1=C(N)C(=O)c2ccccc2C1=O
T/C endpoint: mean survival time, dose: 100.0 mg/kg/injection, schedule: Q01DX001 (ip), vehicle: saline with Tween-80
  survivor count: 1 of 3
T/C endpoint: mean survival time, dose: 200.0 mg/kg/injection, schedule: Q01DX001 (ip), vehicle: saline with Tween-80
  survivor count: 1 of 3
[5]
  survivor count: 0 of 3

## O=C1NC2C3C=CC(C3)C12 (stereo unspecified)
T/C endpoint: mean survival time, dose: 200.0 mg/kg/injection, schedule: Q04DX002 (ip), vehicle: Klucel (hydroxypropylcellulose) (HPC)
  survivor count: 1 of 3
T/C endpoint: mean survival time, dose: 400.0 mg/kg/injection, schedule: Q04DX002 (ip), vehicle: Klucel (hydroxypropylcellulose) (HPC)
  survivor count: 0 of 3

## CCCCCCCCCCCCCCCCCCCCC(C(=O)O)S(=O)(=O)O (stereo unspecified)
[6]
  survivor count: 0 of 6

## CC1(C)N=C(N)N=C(N)N1c1cccc([N+](=O)[O-])c1
[6]
  survivor count: 1 of 6
[2]
  survivor count: 0 of 6

## CCCCCCCCCC(C)CCCC (stereo unspecified)
[5]
  survivor count: 6 of 6

## O=C(CCCCCCC(=O)C[n+]1ccccc1CO)C[n+]1ccccc1CO
T/C endpoint: mean survival time, dose: 25.0 mg/kg/injection, schedule: Q04DX003 (ip), vehicle: saline
  survivor count: 0 of 6
T/C endpoint: mean survival time, dose: 50.0 mg/kg/injection, schedule: Q04DX003 (ip), vehicle: saline
  survivor count: 0 of 6
T/C endpoint: mean survival time, dose: 100.0 mg/kg/injection, schedule: Q04DX003 (ip), vehicle: saline
  survivor count: 0 of 6
[6]
  survivor count: 0 of 6
[2]
  survivor count: 0 of 6

## CCCCCCCCCCCCCCCCCCNC(=S)Nc1ccc(S(=O)(=O)c2ccc(NC(=S)NCCCCCCCCCCCCCCCCCC)cc2)cc1
T/C endpoint: mean survival time, dose: 200.0 mg/kg/injection, schedule: Q01DX001 (ip), vehicle: saline
  survivor count: 4 of 4

## OC1(c2ccncc2)CCc2ccccc21 (stereo unspecified)
[7]
  survivor count: 0 of 6

## COC(=O)C(CCC(=O)O)NC(=O)OCc1ccccc1 (stereo unspecified)
[3]
  survivor count: 3 of 6
[4]
  survivor count: 0 of 6
[7]
  survivor count: 1 of 6

## c1ccc(CNc2ncnc3[nH]ncc23)cc1
T/C endpoint: mean survival time, dose: 64.0 mg/kg/injection, schedule: Q01DX009 (ip), vehicle: saline
  survivor count: 6 of 6
T/C endpoint: mean survival time, dose: 75.0 mg/kg/injection, schedule: Q01DX Z (ip), vehicle: carboxymethylcellulose (CMC)
  survivor count: 5 of 6
T/C endpoint: mean survival time, dose: 100.0 mg/kg/injection, schedule: Q01DX Z (ip), vehicle: carboxymethylcellulose (CMC)
  survivor count: 0 of 6
T/C endpoint: median survival time, dose: 32.0 mg/kg/injection, schedule: Q01DX009 (ip), vehicle: saline
  T/C: 125 % of control

## Nc1nc(N)nc(CCCCCCc2nc(N)nc(N)n2)n1
[1]
  survivor count: 0 of 4
